Experimental data taken from patent US20090048461A1, “Regulators of Bacterial Signalling Pathways” (Biosignal Limited, priority 2004, published 2009).
Some results were stated once for a whole list of compounds, not compound by compound.

Tested on: Pseudomonas aeruginosa (PA01 DO)
Assay: Attachment of Pseudomonas aeruginosa (PA01 DO), crystal violet, microtiter plate
Type: cell-based
Conditions: 50 ug/ml; M9, 37° C., 24 hrs
Procedure: The experiments were performed in 96 wells microtiter plates using a volume of 200 μl. The growth medium was M9 and the plates were incubated at 37° C. One % of overnight inoculum was used and the concentrations of the compounds to be tested were 25 and 50 μg/ml. The attachment of the cells were monitored at the endpoint of the experiment which was after 24 hrs. The cells were stained with crystal violet and the absorbance was measured at 595 nm. Reduction in attachment was measured against the control (PAO1 Do ETO ) set at 100%.

| SMILES | reduction of attachment against control set at 100% |
| --- | --- |
| CCC/C(=C\Br)C(C)=O [Compound 122, 3-(Bromomethylene)-2-Hexanone] | up to 50% |
| CCC(=O)/C(C)=C/Br [Compound 123, 2-(Bromomethylene)-3-Pentanone] | up to 50% |
